We go through four molecules from patent US20030162221A1.

The chains behind the UniProt entries cited, without tags or fusion partners.
UniProt P23594: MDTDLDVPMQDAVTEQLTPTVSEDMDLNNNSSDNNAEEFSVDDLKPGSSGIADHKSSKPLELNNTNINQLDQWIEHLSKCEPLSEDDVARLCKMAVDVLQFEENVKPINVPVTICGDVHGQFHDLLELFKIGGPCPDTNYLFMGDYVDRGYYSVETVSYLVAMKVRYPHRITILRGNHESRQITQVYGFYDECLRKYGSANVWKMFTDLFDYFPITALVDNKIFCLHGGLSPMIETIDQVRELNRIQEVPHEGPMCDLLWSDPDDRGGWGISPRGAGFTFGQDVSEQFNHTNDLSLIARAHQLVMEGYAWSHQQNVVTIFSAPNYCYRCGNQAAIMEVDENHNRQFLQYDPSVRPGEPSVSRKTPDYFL
UniProt P23595: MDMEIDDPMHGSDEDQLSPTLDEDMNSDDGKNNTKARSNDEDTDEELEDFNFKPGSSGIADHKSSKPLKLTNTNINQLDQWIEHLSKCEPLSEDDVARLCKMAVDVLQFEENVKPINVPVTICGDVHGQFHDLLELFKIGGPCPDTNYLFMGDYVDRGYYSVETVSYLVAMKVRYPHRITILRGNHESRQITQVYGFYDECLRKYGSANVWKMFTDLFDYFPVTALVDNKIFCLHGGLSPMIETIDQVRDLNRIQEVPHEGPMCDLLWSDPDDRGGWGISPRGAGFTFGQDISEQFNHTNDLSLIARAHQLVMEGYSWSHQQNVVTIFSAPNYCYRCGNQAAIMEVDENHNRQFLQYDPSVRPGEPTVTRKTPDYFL
UniProt P48510: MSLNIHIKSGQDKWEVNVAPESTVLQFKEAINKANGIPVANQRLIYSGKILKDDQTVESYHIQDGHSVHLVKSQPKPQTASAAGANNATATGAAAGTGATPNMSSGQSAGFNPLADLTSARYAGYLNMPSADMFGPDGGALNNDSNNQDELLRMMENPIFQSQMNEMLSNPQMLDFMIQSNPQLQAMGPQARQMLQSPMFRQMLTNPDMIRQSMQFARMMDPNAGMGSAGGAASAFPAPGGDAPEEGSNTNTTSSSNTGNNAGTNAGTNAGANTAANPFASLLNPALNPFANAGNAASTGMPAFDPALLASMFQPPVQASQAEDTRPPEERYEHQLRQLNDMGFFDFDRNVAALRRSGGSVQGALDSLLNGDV
UniProt P13712: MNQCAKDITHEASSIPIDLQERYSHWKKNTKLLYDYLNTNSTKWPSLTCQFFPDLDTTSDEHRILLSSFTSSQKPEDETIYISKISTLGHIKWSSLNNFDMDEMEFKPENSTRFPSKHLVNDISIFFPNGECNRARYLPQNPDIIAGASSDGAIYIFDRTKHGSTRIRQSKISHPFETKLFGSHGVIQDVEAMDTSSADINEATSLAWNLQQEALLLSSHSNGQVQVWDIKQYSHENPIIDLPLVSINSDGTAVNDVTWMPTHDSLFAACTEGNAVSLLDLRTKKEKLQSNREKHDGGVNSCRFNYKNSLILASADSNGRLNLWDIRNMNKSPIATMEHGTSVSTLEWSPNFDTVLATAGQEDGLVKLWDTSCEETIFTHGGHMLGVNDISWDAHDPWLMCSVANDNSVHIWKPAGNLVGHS

No constants are given. Whether binding was seen depends on the method and setting. In cells and extracts the contact can be indirect. Some binding calls cover weakened binding; strength is not graded here. For part of these data: Where a sequence is shown, tags or fusion partners need not be part of it.

Experiment in all cases: anti-FLAG co-IP, LC-MS/MS
Experiment [1] has as its target Pph21 (Saccharomyces cerevisiae) (UniProt P23594).
The target in experiment [2] is Pph22 (Saccharomyces cerevisiae) (UniProt P23595).
The target of experiment [3] is Dsk2 (Saccharomyces cerevisiae) (UniProt P48510).
Experiment [4] deals with T1, Rad23 (Saccharomyces cerevisiae) (UniProt P32628).
T1 sequence (looked up): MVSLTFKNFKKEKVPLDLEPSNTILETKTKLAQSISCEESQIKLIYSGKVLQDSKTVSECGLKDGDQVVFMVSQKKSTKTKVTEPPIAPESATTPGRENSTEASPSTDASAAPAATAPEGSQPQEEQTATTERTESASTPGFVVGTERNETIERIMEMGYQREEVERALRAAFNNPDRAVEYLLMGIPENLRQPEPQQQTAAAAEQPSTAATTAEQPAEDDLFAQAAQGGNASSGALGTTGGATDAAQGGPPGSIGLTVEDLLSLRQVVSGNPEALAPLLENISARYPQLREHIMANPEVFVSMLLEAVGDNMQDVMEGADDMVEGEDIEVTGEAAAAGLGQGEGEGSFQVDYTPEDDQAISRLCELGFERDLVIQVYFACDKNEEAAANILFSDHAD

For experiment [5], the target named is Msi1 (Saccharomyces cerevisiae) (UniProt P13712).
Experiment [6] deals with T2, Elc1 (Saccharomyces cerevisiae) (UniProt Q03071).
T2 sequence (looked up): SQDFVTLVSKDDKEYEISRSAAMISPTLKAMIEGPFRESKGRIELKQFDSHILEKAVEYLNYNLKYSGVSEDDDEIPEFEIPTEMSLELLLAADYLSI

B1: Cdc55 (protein, Saccharomyces cerevisiae, UniProt Q00362 1-526, looked up)
chain: MAQNNFDFKFSQCFGDKADIVVTEADLITAVEFDYTGNYLATGDKGGRVVLFERSNSRHCEYKFLTEFQSHDAEFDYLKSLEIEEKINEIKWLRPTQRSHFLLSTNDKTIKLWKVYEKNIKLVSQNNLTEGVTFAKKGKPDNHNSRGGSVRAVLSLQSLKLPQLSQHDKIIAATPKRIYSNAHTYHINSISLNSDQETFLSADDLRINLWNLDIPDQSFNIVDIKPTNMEELTEVITSAEFHPQECNLFMYSSSKGTIKLCDMRQNSLCDNKTKTFEEYLDPINHNFFTEITSSISDIKFSPNGRYIASRDYLTVKIWDVNMDNKPLKTINIHEQLKERLSDTYENDAIFDKFEVNFSGDSSSVMTGSYNNNFMIYPNVVTSGDNDNGIVKTFDEHNAPNSNSNKNIHNSIQNKDSSSSGNSHKRRSNGRNTGMVGSSNSSRSSIAGGEGANSEDSGTEMNEIVLQADKTAFRNKRYGSLAQRSARNKDWGDDIDFKKNILHFSWHPRENSIAVAATNNLFIFSAL
Consider B1, for which the binding entry in experiment [1] and in experiment [2] was “binds” throughout.

B2: Ufd2 (protein, Saccharomyces cerevisiae, UniProt P54860 1-961, looked up)
chain: MTAIEDILQITTDPSDTRGYSLLKSEEVPQGSTLGVDFIDTLLLYQLTENEKLDKPFEYLNDCFRRNQQQKRITKNKPNAESLHSTFQEIDRLVIGYGVVALQIENFCMNGAFINYITGIVSNVNSYTDFLSQIIQRAILEGTALDLLNAVFPTLLEYCNKHVSHFDLNESVIYNNVLTIFELFVTFKPIAEIFTKIDGFFADYSCKPQDFERKTILGPILSLSPIEAAVAIRNYGDNLLRSKQQTAMIHESLQAEHKVVIDRLFFIVDKLVRGSLNSRTDMISYFAHIANKNHLRRADHPPFKELSSNGFMSNITLLLVRFSQPFLDISYKKIDKIDANYFNNPSLFIDLSGETRLNSDFKEADAFYDKNRKTADSKPNFISDCFFLTLTYLHYGLGGTLSFEEKMGSEIKALKEEIEKVKKIAANHDVFARFITAQLSKMEKALKTTESLRFALQGFFAHRSLQLEVFDFICGASTFLIRVVDPEHEFPFKQIKLPLIPDQIGVENVDNADFLRAHAPVPFKYYPEFVVEGPVNYSLYISKYQTSPIFRNPRLGSFVEFTTMVLRCPELVSNPHLKGKLVQLLSVGAMPLTDNSPGFMMDIFEHDELVNKNLLYALLDFYVIVEKTGSSSQFYDKFNSRYSISIILEELYYKIPSYKNQLIWQSQNNADFFVRFVARMLNDLTFLLDEGLSNLAEVHNIQNELDNRARGAPPTREEEDKELQTRLASASRQAKSSCGLADKSMKLFEIYSKDIPAAFVTPEIVYRLASMLNYNLESLVGPKCGELKVKDPQSYSFNPKDLLKALTTVYINLSEQSEFISAVAKDERSFNRNLFVRAVDILGRKTGLASPEFIEKLLNFANKAEEQRKADEEEDLEYGDVPDEFLDPLMYTIMKDPVILPASKMNIDRSTIKAHLLSDSTDPFNRMPLKLEDVTPNEELRQKILCFKKQKKEEAKHKASE
B2: the binding entry in experiment [3] and in experiment [4] was “binds” each time.

B3: Rad1 (protein, Saccharomyces cerevisiae, UniProt P06777 1-1100, looked up)
chain: MSQLFYQGDSDDELQEELTRQTTQASQSSKIKNEDEPDDSNHLNEVENEDSKVLDDDAVLYPLIPNEPDDIETSKPNINDIRPVDIQLTLPLPFQQKVVENSLITEDALIIMGKGLGLLDIVANLLHVLATPTSINGQLKRALVLVLNAKPIDNVRIKEALEELSWFSNTGKDDDDTAVESDDELFERPFNVVTADSLSIEKRRKLYISGGILSITSRILIVDLLSGIVHPNRVTGMLVLNADSLRHNSNESFILEIYRSKNTWGFIKAFSEAPETFVMEFSPLRTKMKELRLKNVLLWPRFRVEVSSCLNATNKTSHNKVIEVKVSLTNSMSQIQFGLMECLKKCIAELSRKNPELALDWWNMENVLDINFIRSIDSVMVPNWHRISYESKQLVKDIRFLRHLLKMLVTSDAVDFFGEIQLSLDANKPSVSRKYSESPWLLVDEAQLVISYAKKRIFYKNEYTLEENPKWEQLIHILHDISHERMTNHLQGPTLVACSDNLTCLELAKVLNASNKKRGVRQVLLNKLKWYRKQREETKKLVKEVQSQDTFPENATLNVSSTFSKEQVTTKRRRTRGASQVAAVEKLRNAGTNVDMEVVFEDHKLSEEIKKGSGDDLDDGQEENAANDSKIFEIQEQENEILIDDGDAEFDNGELEYVGDLPQHITTHFNKDLWAEHCNEYEYVDRQDEILISTFKSLNDNCSLQEMMPSYIIMFEPDISFIRQIEVYKAIVKDLQPKVYFMYYGESIEEQSHLTAIKREKDAFTKLIRENANLSHHFETNEDLSHYKNLAERKLKLSKLRKSNTRNAGGQQGFHNLTQDVVIVDTREFNASLPGLLYRYGIRVIPCMLTVGDYVITPDICLERKSISDLIGSLQNNRLANQCKKMLKYYAYPTLLIEFDEGQSFSLEPFSERRNYKNKDISTVHPISSKLSQDEIQLKLAKLVLRFPTLKIIWSSSPLQTVNIILELKLGREQPDPSNAVILGTNKVRSDFNSTAKGLKDGDNESKFKRLLNVPGVSKIDYFNLRKKIKSFNKLQKLSWNEINELINDEDLTDRIYYFLRTEKEEQEQESTDENLESPGKTTDDNALHDHHNDVPEAPV
With B3, the binding entry in experiment [5] is given as “binds”.

B4: Rad7 (protein, Saccharomyces cerevisiae, UniProt P06779 1-565, looked up)
chain: MYRSRNRPKRGGENEVKGPNSALTQFLREEGISAENIKQKWYQRQSKKQEDATDEKKGKAEDDSFTAEISRVVEDEEIDEIGTGSGTETERAQVSYDARMKLVPADSDEEEYETSHISDTPVSLSSANDRESLTKKRQNTAKIIQNRRRKRKRAADLLDRRVNKVSSLQSLCITKISENISKWQKEADESSKLVFNKLRDVLGGVSTANLNNLAKALSKNRALNDHTLQLFLKTDLKRLTFSDCSKISFDGYKTLAIFSPHLTELSLQMCGQLNHESLLYIAEKLPNLKSLNLDGPFLINEDTWEKFFVIMKGRLEEFHISNTHRFTDKSLSNLLINCGSTLVSLGLSRLDSISNYALLPQYLVNDEFHSLCIEYPFNEEDVNDEIIINLLGQIGRTLRKLVLNGCIDLTDSMIINGLTAFIPEKCPLEVLSLEESDQITTDSLSYFFSKVELNNLIECSFRRCLQLGDMAIIELLLNGARDSLRSLNLNSLKELTKEAFVALACPNLTYLDLGFVRCVDDSVIQMLGEQNPNLTVIDVFGDNLVTEKATMRPGLTLIGRQSDSI
Regarding B4, in experiment [6], the binding entry is “binds”.
